Reference: PubChem BioAssay AID504348 (Broad Institute, 2011)
Inconclusive results, whose numbers are uncertain, are shown with a selection of clear calls. The source made the active and inactive calls.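 Rule for the calls: active = dose curve reaching 10% of the positive control caspase signal at or below the top valid dose; inconclusive = no clear call, values can overlap the other calls; inactive = reverse-direction response, or no crossing within range.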

Experiment: caspase activation in Mcl1-dependent HMC 1-8 cells, dose response, counter-screen for A1 inhibitor project, cell-based, luminescence, dry powder, set 3 (AID 504348)
Details: caspase-Glo luminescence, 4 h; at 35 µM (top of the series) unless noted
Procedure, shortened: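 Assay system: HMC 1-8 human cancer cells, low A1, Mcl1-dependent | Input: 2500 cells per well | Buffer or medium: RPMI-1640 growth medium with 10% FBS | Dosing: Compound added by pin transfer | Times: 4 h compound exposure, 37 °C, plus 1 h room-temperature detection | Measured by: CaspaseGlo luminescence | Read-out: Caspase activation from luminescent signal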

Row | SMILES | caspase activation
1 | COCCn1c(=O)c(Sc2ccc(C)cc2)c(Sc2ccc(C)cc2)c2ccccc21 | inconclusive: -1.74%
2 | Cc1ccc(Sc2c(Sc3ccc(C)cc3)c3ccccc3n(Cc3ccccc3)c2=O)cc1 | inconclusive: 5.66%
3 | Cc1ccc(Sc2c([N+](=O)[O-])c(=O)n(C)c3ccccc23)cc1 | inconclusive: 12.4%
4 | COc1ccc(CCNc2nc(N3CCCC3)nc(N3CCCC3)n2)cc1OC | inactive: 1.28%
5 | COc1nc2ccccc2c(Cl)c1[N+](=O)[O-] | inconclusive: 8.28%
6 | CC1(C)CCC(c2ccc(Cl)cc2)=C(CN2CCN(c3ccc(C(=O)NS(=O)(=O)c4ccc(N[C@H](CCN5CCOCC5)CSc5ccccc5)c(S(=O)(=O)C(F)(F)F)c4)cc3)CC2)C1 | inconclusive: 14.6% [at 16 µM]
7 | Cc1ccc(Sc2c(Sc3ccc(C)cc3)c3ccccc3n(C)c2=O)cc1 | inconclusive: 15.8%
8 | COCCn1c(=O)c([N+](=O)[O-])c(Cl)c2ccccc21 | inconclusive: 13.9%
9 | COc1c([N+](=O)[O-])c(=O)n(C)c2ccccc12 | inconclusive: -3.84%
10 | CCn1c(=O)c([N+](=O)[O-])c(Cl)c2ccccc21 | inconclusive: 30.1%
11 | Cc1ccc(Sc2c([N+](=O)[O-])c(=O)n(Cc3ccccc3)c3ccccc23)cc1 | inactive: 10.5%
12 | Cn1c(=O)c([N+](=O)[O-])c(Cl)c2ccccc21 | inconclusive: 39%
13 | O=C(COc1ccc(Cl)cc1Cl)NNc1nc(N2CCOCC2)nc(N2CCOCC2)n1 | inactive: -3.76%
14 | O=c1[nH]c2ccccc2c(O)c1[N+](=O)[O-] | inconclusive: 26.5%
15 | COCCn1c(=O)c([N+](=O)[O-])c(Sc2ccc(C)cc2)c2ccccc21 | inactive: 13.3%
16 | Cn1c(=O)c([N+](=O)[O-])c(Sc2ccccn2)c2ccccc21 | inconclusive: 25.1%
17 | O=c1c([N+](=O)[O-])c(Cl)c2ccccc2n1Cc1ccccc1 | inconclusive: 21.6%
18 | CCn1c(=O)c(Sc2ccc(C)cc2)c(Sc2ccc(C)cc2)c2ccccc21 | inconclusive: 8.26%
19 | Cn1c(=O)c([N+](=O)[O-])c(S(C)(=O)=O)c2ccccc21 | inconclusive: 3.83%
20 | COc1nc2ccccc2c(Sc2ccc(C)cc2)c1[N+](=O)[O-] | inactive: -4.59%
21 | Cc1ccc(S(=O)(=O)c2c([N+](=O)[O-])c(=O)n(C)c3ccccc23)cc1 | inconclusive: 9.16%

Nos. 12 through 15 of the list above:
Row | SMILES | caspase activation
12 | Cn1c(=O)c([N+](=O)[O-])c(Cl)c2ccccc21 | inconclusive: 39%
13 | O=C(COc1ccc(Cl)cc1Cl)NNc1nc(N2CCOCC2)nc(N2CCOCC2)n1 | inactive: -3.76%
14 | O=c1[nH]c2ccccc2c(O)c1[N+](=O)[O-] | inconclusive: 26.5%
15 | COCCn1c(=O)c([N+](=O)[O-])c(Sc2ccc(C)cc2)c2ccccc21 | inactive: 13.3%
